Assay in all cases: co-IP; co-immunoprecipitation (Fig. 1O); cells, bait and antibodies are not told in the shown text
For assay [1], the target named is Insulin receptor (UniProt P06213).
Assay [2] addresses Insulin-like growth factor 1 receptor (UniProt P08069).
Assay [3] has as its target Neural precursor cell expressed developmentally downregulated protein 4-1 (UniProt P46934).

By UniProt entry, the sequences of proteins in these tests, tags left out. Residues count along the entry.
UniProt P06213, residues 28-1382: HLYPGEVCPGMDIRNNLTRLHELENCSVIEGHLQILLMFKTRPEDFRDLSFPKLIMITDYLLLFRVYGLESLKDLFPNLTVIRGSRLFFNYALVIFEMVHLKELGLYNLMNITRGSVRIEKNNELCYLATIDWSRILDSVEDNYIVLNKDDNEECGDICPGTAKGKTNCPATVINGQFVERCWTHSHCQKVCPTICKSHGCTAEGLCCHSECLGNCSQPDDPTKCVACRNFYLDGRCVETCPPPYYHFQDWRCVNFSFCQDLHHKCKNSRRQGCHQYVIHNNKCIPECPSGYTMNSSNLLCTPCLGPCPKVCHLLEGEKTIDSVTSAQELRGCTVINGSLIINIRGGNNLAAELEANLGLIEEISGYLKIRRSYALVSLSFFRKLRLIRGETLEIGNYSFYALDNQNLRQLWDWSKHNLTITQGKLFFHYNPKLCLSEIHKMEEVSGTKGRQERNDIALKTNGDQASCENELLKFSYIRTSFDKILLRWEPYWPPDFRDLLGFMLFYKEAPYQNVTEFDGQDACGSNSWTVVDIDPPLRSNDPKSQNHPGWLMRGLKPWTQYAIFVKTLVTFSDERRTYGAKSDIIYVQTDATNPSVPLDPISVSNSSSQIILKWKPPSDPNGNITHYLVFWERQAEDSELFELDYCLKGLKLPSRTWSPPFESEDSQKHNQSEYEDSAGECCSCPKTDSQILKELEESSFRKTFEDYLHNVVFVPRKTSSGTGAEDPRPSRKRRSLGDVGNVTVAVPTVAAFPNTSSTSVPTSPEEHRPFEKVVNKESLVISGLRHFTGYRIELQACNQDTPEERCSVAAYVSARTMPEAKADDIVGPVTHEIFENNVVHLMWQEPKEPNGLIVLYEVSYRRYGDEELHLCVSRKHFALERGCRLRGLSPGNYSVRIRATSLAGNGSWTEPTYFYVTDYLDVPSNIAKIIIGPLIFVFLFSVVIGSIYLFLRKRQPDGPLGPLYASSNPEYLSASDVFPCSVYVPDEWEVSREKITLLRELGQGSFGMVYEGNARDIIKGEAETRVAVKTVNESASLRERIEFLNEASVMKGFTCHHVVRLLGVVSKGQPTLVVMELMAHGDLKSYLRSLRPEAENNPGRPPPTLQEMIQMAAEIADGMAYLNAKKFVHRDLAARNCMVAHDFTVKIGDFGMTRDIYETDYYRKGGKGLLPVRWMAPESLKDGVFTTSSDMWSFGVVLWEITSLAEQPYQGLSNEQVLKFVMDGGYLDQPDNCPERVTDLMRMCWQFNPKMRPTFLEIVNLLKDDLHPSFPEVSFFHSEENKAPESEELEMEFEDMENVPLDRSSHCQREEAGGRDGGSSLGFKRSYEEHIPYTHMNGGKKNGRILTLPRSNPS
UniProt P08069, residues 31-1367: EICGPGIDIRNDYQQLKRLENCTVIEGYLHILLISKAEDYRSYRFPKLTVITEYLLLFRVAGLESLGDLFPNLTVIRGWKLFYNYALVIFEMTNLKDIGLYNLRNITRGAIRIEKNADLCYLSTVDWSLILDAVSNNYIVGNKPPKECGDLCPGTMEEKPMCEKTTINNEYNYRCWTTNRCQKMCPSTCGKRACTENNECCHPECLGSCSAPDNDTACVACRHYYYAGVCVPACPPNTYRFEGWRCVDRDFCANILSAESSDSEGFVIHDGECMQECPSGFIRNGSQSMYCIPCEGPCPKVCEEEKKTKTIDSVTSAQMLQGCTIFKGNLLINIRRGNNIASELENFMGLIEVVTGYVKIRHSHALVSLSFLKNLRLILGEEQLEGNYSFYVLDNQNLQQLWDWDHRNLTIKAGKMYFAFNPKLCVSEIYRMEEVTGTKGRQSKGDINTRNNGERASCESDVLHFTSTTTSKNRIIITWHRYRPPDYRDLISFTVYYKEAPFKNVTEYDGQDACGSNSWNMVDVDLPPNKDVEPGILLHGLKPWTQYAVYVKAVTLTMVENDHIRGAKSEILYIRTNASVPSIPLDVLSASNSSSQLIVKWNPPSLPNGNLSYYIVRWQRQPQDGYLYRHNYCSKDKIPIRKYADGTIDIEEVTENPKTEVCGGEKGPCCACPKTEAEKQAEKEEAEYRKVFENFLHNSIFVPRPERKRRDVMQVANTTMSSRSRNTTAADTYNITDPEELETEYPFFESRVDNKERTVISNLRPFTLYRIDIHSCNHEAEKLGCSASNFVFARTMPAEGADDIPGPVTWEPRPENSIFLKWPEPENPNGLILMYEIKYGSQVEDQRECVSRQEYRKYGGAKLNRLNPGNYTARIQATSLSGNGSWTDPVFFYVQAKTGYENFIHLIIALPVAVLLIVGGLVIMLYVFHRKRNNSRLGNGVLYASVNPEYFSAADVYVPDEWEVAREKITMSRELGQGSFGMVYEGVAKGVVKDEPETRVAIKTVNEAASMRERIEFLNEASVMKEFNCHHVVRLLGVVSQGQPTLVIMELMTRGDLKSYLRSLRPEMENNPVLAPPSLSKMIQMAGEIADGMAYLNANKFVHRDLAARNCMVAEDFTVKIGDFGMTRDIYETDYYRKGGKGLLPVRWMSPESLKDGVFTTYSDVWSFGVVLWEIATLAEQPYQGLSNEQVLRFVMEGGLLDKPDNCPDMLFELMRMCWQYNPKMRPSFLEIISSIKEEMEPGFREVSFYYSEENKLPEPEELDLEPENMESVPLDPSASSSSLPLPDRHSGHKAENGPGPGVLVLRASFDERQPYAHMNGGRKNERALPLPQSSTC
UniProt P46934: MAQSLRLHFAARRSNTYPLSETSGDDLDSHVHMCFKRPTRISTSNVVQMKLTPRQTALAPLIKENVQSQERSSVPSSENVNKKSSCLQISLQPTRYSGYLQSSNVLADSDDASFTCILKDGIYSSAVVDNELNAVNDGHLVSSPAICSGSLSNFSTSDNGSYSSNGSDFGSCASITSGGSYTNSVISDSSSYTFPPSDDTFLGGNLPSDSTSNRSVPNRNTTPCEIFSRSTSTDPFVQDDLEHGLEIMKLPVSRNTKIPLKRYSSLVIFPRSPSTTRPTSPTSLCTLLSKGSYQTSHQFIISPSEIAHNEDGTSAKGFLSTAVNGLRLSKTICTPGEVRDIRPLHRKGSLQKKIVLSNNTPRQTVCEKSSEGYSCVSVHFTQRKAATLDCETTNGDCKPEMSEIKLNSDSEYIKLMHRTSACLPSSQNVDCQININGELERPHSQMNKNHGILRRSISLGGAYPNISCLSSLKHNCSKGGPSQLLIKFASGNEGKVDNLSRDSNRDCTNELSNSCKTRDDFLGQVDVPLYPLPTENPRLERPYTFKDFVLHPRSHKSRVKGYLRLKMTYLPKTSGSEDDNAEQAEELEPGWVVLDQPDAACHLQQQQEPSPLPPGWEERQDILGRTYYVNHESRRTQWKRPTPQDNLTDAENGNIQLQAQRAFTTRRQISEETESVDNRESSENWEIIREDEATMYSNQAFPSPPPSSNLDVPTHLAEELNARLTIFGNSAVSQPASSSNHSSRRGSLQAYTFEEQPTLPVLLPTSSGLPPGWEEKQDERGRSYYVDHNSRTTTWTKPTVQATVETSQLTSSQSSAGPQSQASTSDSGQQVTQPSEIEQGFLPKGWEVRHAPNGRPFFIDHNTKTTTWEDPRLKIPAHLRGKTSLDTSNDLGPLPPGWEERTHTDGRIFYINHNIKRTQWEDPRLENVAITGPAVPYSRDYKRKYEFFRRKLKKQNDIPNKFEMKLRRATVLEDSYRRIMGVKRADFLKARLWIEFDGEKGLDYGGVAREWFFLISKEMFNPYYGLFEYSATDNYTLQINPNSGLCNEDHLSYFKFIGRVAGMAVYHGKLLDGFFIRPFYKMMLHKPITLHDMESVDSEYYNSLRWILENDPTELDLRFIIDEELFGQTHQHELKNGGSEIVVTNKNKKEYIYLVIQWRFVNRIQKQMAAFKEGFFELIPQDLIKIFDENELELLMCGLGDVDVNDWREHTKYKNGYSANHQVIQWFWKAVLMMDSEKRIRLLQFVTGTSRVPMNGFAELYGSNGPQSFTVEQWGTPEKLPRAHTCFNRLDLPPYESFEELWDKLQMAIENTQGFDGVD

These are yes or no findings as the source states them, for the method shown. Binding seen in cells or lysates may run through a third protein. Some binding calls cover weakened binding; strength is not graded here.

Data on one molecule can be found in publication PMC9204904.

B1: Transcriptional regulator interacting with the PHD-bromodomain 1 (protein, UniProt Q9UHV2 1-236)
chain: MLSKGLKRKREEEEEKEPLAVDSWWLDPGHTAVAQAPPAVASSSLFDLSVLKLHHSLQQSEPDLRHLVLVVNTLRRIQASMAPAAALPPVPSPPAAPSVADNLLASSDAALSASMASLLEDLSHIEGLSQAPQPLADEGPPGRSIGGAAPSLGALDLLGPATGCLLDDGLEGLFEDIDTSMYDNELWAPASEGLKPGPEDGPGKEEAPELDEAELDYLMDVLVGTQALERPPGPGR
Take B1: the binding result is reported as “no binding” in assay [1], “binds” in assay [2] and “binds” in assay [3].
